Data: article PMC7862700
The entries are a selection whose mix differs from that of the whole data set. For part of these data: At the low end of the ranking, values are background and their order means little. This is one part of the list. For part of these data: The source does not settle which construct or isoform was used.

Sequences of proteins named here, by UniProt entry; tags and fusion partners are left off. A change or cut given only in a name is not applied to a line headed by its entry.
UniProt P32519: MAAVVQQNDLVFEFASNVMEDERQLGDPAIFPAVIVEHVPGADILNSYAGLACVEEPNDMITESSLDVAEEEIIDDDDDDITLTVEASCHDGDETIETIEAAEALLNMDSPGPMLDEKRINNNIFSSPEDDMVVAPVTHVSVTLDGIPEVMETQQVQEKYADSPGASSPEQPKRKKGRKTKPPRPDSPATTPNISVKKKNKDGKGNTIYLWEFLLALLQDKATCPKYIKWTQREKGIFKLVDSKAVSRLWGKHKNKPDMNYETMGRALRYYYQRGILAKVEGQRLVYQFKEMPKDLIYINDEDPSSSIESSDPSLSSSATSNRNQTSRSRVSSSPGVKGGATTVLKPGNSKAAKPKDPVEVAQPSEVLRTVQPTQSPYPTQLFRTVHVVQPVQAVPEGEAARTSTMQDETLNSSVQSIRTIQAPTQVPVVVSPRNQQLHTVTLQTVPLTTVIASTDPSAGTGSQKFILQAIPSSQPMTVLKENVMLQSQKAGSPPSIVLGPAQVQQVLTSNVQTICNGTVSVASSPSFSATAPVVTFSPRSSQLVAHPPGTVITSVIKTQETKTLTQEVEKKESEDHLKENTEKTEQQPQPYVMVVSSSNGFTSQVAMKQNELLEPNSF
UniProt P50549: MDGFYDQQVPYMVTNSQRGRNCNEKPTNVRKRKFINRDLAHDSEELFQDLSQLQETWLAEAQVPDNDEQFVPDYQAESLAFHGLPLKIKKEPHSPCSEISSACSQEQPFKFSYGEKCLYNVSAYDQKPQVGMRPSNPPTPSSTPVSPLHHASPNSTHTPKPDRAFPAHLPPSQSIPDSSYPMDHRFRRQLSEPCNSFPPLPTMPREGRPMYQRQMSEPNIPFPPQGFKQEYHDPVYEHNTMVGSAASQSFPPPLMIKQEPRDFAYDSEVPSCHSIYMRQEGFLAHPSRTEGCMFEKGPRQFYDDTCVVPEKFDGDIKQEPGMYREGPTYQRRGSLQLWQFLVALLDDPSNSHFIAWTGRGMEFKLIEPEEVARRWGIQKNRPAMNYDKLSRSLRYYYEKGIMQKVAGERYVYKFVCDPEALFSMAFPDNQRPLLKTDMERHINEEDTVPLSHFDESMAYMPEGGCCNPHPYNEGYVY

Legend:
Test in all cases: DAPPL (digital affinity profiling via proximity ligation, sequencing)
Details in all cases: 10 mM Tris-HCl pH 7.5, 50 mM NaCl, 1 mM DTT, 4% glycerol, room temperature, 30 min; GST-TFs on glutathione beads, 16-mer random dsDNA library, 0.1% …; high values mean tight binding; double strand, one strand shown; scale: fold enrichment (6-mer frequency, TF over GST control)
[1] = target: T1, ERG (UniProt P11308)
T1 sequence: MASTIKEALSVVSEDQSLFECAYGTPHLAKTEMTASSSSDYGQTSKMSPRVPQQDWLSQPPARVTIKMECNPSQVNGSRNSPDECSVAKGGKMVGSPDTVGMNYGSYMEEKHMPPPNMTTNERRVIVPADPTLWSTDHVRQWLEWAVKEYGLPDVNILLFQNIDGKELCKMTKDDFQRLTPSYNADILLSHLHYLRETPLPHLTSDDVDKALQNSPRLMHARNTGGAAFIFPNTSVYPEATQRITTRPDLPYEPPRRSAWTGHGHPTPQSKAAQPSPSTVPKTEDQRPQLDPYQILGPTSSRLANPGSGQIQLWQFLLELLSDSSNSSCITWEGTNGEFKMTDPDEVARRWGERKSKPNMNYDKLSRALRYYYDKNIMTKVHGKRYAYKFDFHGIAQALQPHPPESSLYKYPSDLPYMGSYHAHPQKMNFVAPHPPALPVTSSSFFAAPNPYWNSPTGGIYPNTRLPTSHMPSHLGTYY

[2] = target: ELF1 (UniProt P32519)
[3] = target: T2, ELK4 (UniProt P28324-2)
T2 sequence: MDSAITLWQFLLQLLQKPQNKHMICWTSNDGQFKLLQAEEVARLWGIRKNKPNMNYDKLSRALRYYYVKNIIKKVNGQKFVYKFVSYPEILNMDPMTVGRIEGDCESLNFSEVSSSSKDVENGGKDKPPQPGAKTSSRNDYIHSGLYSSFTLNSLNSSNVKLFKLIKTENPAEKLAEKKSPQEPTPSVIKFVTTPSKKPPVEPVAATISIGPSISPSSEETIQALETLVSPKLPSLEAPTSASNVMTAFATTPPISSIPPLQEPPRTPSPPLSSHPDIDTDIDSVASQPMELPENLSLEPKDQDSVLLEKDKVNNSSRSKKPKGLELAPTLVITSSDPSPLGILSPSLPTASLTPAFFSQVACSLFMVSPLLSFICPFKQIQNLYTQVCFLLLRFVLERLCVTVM

[4] = target: T3, ETV4 (UniProt P43268)
T3 sequence: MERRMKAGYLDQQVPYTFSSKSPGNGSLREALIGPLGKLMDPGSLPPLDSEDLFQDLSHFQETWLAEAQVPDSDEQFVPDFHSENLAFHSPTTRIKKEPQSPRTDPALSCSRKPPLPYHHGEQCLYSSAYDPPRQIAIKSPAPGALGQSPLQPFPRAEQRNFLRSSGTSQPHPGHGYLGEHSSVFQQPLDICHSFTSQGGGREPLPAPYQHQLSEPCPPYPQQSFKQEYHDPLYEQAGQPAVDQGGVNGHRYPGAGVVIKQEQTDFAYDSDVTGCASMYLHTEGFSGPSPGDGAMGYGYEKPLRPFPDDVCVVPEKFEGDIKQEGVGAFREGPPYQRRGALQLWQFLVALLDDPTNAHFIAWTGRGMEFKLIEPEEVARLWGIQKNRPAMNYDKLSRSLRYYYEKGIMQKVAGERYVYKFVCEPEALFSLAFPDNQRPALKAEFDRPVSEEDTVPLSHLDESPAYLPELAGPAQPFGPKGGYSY

[5] = target: ETV1 (UniProt P50549)
[6] = target: T4, ERF (UniProt P50548)
T4 sequence: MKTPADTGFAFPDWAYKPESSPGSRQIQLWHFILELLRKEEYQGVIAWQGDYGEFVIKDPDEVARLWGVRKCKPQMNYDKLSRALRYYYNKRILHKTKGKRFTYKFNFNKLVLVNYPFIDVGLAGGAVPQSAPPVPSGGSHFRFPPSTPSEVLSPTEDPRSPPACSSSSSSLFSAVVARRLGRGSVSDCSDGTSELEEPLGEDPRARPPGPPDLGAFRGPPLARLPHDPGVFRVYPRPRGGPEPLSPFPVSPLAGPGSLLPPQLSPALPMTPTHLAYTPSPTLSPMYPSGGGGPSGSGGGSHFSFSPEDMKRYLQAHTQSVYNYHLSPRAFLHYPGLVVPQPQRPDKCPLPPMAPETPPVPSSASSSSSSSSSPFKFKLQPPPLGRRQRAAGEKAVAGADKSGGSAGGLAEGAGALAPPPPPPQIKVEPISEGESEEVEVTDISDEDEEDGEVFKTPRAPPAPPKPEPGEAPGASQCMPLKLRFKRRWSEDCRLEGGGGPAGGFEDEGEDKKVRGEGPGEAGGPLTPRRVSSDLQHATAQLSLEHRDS

Row | Sequence | binding signal [1] | binding signal [2] | binding signal [3] | binding signal [4] | binding signal [5] | binding signal [6]
1 | TGGGCC | 0.918 | 0.934 | 0.863 | 0.974 | 0.899 | 
2 | CCTAGT | 0.884 | 0.935 | 0.973 | 0.947 |  | 
3 | GTAGCC | 0.905 | 0.917 | 0.896 | 1.04 |  | 0.947
4 | CAGCAA | 0.947 | 0.972 | 0.973 | 0.893 | 0.886 | 
5 | ACAGGT | 0.739 | 0.734 | 0.837 | 0.694 | 0.681 | 0.756
6 | GGTGCT | 0.965 | 0.91 | 0.782 | 0.892 |  | 0.953
7 | GGTCAG | 0.512 | 0.539 | 0.52 | 0.551 | 0.551 | 0.506
8 | CGGTAC | 0.943 | 0.976 | 0.934 | 0.907 |  | 0.991
9 | GCGCTA | 0.937 | 0.962 | 0.858 | 0.969 | 0.926 | 
10 | CAGAGT | 0.632 | 0.635 | 0.675 | 0.65 | 0.675 | 0.587
11 | TGAGGG | 0.658 | 0.618 | 0.718 | 0.633 | 0.639 | 0.759
12 | GACGAT | 0.922 | 0.908 | 0.877 | 0.835 | 0.958 | 
13 | GACGAA | 0.855 | 0.824 | 0.788 | 0.881 | 0.811 | 
14 | GTCGCT | 0.76 | 0.793 | 0.782 | 0.774 | 0.868 | 0.862
15 | AGGGCC | 0.927 | 0.94 | 1.1 | 0.893 | 0.859 | 0.923
16 | ATAGAG | 0.849 | 0.916 | 0.941 | 0.897 | 0.878 | 
17 | GTAAAG | 0.896 | 0.951 | 0.906 | 0.924 | 0.964 | 0.948
18 | CGCGGT | 0.919 | 0.885 | 0.996 | 0.939 |  | 0.89
19 | GAACAG |  | 0.901 | 0.998 | 0.902 | 0.908 | 0.928
20 | TGCAGG |  | 0.964 | 0.95 | 0.982 | 0.962 | 
21 | GGTTAG | 0.8 | 0.775 | 0.917 | 0.815 | 0.779 | 0.741
22 | GCAACG |  | 0.98 | 0.979 | 1 | 0.993 | 
23 | GCTGTC | 0.86 | 0.976 | 0.938 | 0.993 | 0.9 | 

Two records drawn at random from those above:
Row | Sequence | binding signal [1] | binding signal [2] | binding signal [3] | binding signal [4] | binding signal [5] | binding signal [6]
9 | GCGCTA | 0.937 | 0.962 | 0.858 | 0.969 | 0.926 | 
18 | CGCGGT | 0.919 | 0.885 | 0.996 | 0.939 |  | 0.89
